The other results are listed elsewhere or left out.

Chains of the proteins cited; added tags and fusions are not shown.
UniProt Q0JBA9, entry or part of it: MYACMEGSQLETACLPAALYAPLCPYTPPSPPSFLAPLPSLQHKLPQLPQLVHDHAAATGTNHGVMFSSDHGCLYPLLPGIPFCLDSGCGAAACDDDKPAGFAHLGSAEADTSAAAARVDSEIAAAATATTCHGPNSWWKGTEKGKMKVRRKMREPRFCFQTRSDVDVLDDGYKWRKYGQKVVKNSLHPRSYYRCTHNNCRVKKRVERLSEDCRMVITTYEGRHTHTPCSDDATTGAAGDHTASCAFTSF

The target in this experiment is OsWRKY34 (Oryza sativa, UniProt Q0JBA9 1-250). The experiment can be described thus: protein-binding microarray (RPBM); PBS, 2% BSA, 51.3 ng/ul salmon testes DNA, 50 uM zinc acetate, 200 nM TF, 25 C, 1 h; high values mean tight binding. To be noted: protein: recombinant; tags: N-terminal polyhistidine and DsRed monomer fusion (pET32a); label: CyDye5-dUTP incorporated in the synthesized complementary strand; 3' TTTTT single-stranded linker to array surface; dsDNA, one strand shown. In a few lines:
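Binding signal is reported as fluorescence intensity per feature (arbitrary units) from an Axon 4000B scanner. Incubation used 200 nM of each Ni–NTA-purified, N-terminally polyhistidine- and DsRed-fused transcription factor from E. coli BL21-CodonPlus on a double-stranded custom Agilent array for 1 h at 25 °C, with 50 µM zinc acetate in the buffer, followed by washing.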
Regarding “CACCACACAGCCTTTTTAGTGCCCTGATTATATAATCTTCCGGAGTCACCTAGTGCAG”, the binding signal was 11700 fluorescence intensity (a.u.). In the case of “CGAAATTCATTCAGCAGAACAGTCAATACCGTTTGTTTCCCGGAGTCACCTAGTGCAG”, the binding signal was 9330 fluorescence intensity (a.u.). As for “CTCCACGCCATGCTCTGCTTTTCTTCAGCTTTTTCTTGGGCGGAGTCACCTAGTGCAG”, the binding signal was 8320 fluorescence intensity (a.u.).

Take “GGCCGAAACTTCTTTCTTTCTTCCGTTTGGCCCAATCCTTCGGAGTCACCTAGTGCAG”: the binding signal is 9290 fluorescence intensity (a.u.). Consider “AAAATCATGCTTTTCTCTCTACTTTTCTTTTTCTTTTTTCCGGAGTCACCTAGTGCAG”, for which the binding signal is 9200 fluorescence intensity (a.u.). In the case of “GTTGTGTTTAGCCGCGGTAGTTTTCTAAGCTTCAGTTTTCCGGAGTCACCTAGTGCAG” it was 10800 fluorescence intensity (a.u.); in that of “GTCATAATTTTAAAAGTTTAGGGGTTGATTCGGTCCAAATCGGAGTCACCTAGTGCAG”, 8420 fluorescence intensity (a.u.). Turning to “TGTTTTGACGGGCCCGGAATTGCTTTTGCTGCCTAGGCACCGGAGTCACCTAGTGCAG”, the binding signal was 9370 fluorescence intensity (a.u.). Turning to “ATTCCATCGTATATTACCCATGAACATGCATAGGTGAATCCGGAGTCACCTAGTGCAG”, the binding signal was 8780 fluorescence intensity (a.u.). “AAGACTTTCACCTTGGAGTCCTATCCAACCATATGCCACCCGGAGTCACCTAGTGCAG”: the binding signal is 10000 fluorescence intensity (a.u.).

Take “TTGAGATGTGTGCTCAGACAGTCACAACACCACGTTGACCCGGAGTCACCTAGTGCAG”: the binding signal is 9890 fluorescence intensity (a.u.). For “GCGGGTGTGGCATTGTGGGTAATCTCGGCCGTTCAAATATCGGAGTCACCTAGTGCAG”, the binding signal was 17300 fluorescence intensity (a.u.).

On to “CCGCGTTGTGTTTCGCTTTTTGGCAGTTCGATCGATCTTACGGAGTCACCTAGTGCAG”, for which the binding signal was 8240 fluorescence intensity (a.u.). In the case of “AGTTCGTGTGCTTCTCTCATTTGTTCCTTGATATATTTGCCGGAGTCACCTAGTGCAG” it was 10300 fluorescence intensity (a.u.); in that of “TTTGTCATATCAAAATGCTTTTGACTTTTGATTATTCTTCCGGAGTCACCTAGTGCAG”, 9800 fluorescence intensity (a.u.); in that of “GTTTTTTCTTGCCAAGTATGGTACCATGTTCTGTCTCCTCCGGAGTCACCTAGTGCAG”, 8760 fluorescence intensity (a.u.). Take “GTGTTGGTCTTTGATGTAGTCGTACCACTGCTGTAAAAAACGGAGTCACCTAGTGCAG”: the binding signal was 8300 fluorescence intensity (a.u.).

On to “CTGCTAACCACAATTCCCTCGTACCATCACATGGCAAACACGGAGTCACCTAGTGCAG”, for which the binding signal was 8450 fluorescence intensity (a.u.). Turning to “CGCGTGGACCCCACCTGCAGCCACCCACCCTCCACCTTCCCGGAGTCACCTAGTGCAG”, the binding signal is 8080 fluorescence intensity (a.u.). Take “ACAGCCATGTTCCCACGTCGCGCCTGCTTCCGGCGGAAGTCGGAGTCACCTAGTGCAG”: the binding signal was 9340 fluorescence intensity (a.u.). For the sequence “CATGCGGCCTGGTGATATAAGTACATTAGTTGATTCTCCCCGGAGTCACCTAGTGCAG”, the binding signal is 8940 fluorescence intensity (a.u.). In the case of “GTTTTTCCTGTGGTCCAATCAAACGGCCATTCCTGTGTTTCGGAGTCACCTAGTGCAG” it was 14300 fluorescence intensity (a.u.); in that of “CCAGCAGCAGTCCACCACCCCGCCGCTTCCCCGCAAAAACCGGAGTCACCTAGTGCAG”, 8300 fluorescence intensity (a.u.). Consider “ACAAATTAGTTAAACTTGCACCTTTCTTGTTGCTACCTCACGGAGTCACCTAGTGCAG”, for which the binding signal is 8660 fluorescence intensity (a.u.).

As to “GAGTAGAGTATTAATTTCACACCCTCACTTCTGCCACATTCGGAGTCACCTAGTGCAG”, the binding signal was 8250 fluorescence intensity (a.u.).

Regarding “AGATGACGCCGTTGACTTTTTATCACATGTTTAACCATTCCGGAGTCACCTAGTGCAG”, the binding signal was 42300 fluorescence intensity (a.u.). In the case of “ATTTTTTTTCCCAAATCCATTTATTTTCCTCTCTTCTCTCCGGAGTCACCTAGTGCAG” it was 9970 fluorescence intensity (a.u.); in that of “GGTTGGGGCTACGTGTTTGTGTTCTCGTATAAGGGTCGTGCGGAGTCACCTAGTGCAG”, 13800 fluorescence intensity (a.u.).

“CAACTTGGTTCAAACGGGGTTTGGATTGTTGTGGTTCATTCGGAGTCACCTAGTGCAG”: the binding signal was 11300 fluorescence intensity (a.u.). For “TTAGCACATGTTTGACCGTTCGTCTTATTCAAAAACTTTTCGGAGTCACCTAGTGCAG”, the binding signal was 12600 fluorescence intensity (a.u.).

For the sequence “AGGTTGGGTATAAAATATCGTCGCGGATCACAAAATATATCGGAGTCACCTAGTGCAG”, the binding signal is 9230 fluorescence intensity (a.u.). With “GCTTCTTAGTTCTCAGCCACACCGCAAGCAGAAACGTGCACGGAGTCACCTAGTGCAG”, the binding signal was 8820 fluorescence intensity (a.u.). Regarding “AGGACCATCTGGATATGTTTGTGTTTTCTGGATTTCTGAACGGAGTCACCTAGTGCAG”, the binding signal is 9520 fluorescence intensity (a.u.). The same measure for “ATAAGTTAATTTAGTATGGGATGCGACATCTGTTAGTACTCGGAGTCACCTAGTGCAG”: 8160 fluorescence intensity (a.u.); for “GATAAGCTCAACCCATCGATTCCGCTAAGTCAATCCTACCCGGAGTCACCTAGTGCAG”: 8680 fluorescence intensity (a.u.); for “GGGTTGCCGCTACAGGCTCAGCTCTCCGTCGCTCCGCCTGCGGAGTCACCTAGTGCAG”: 9450 fluorescence intensity (a.u.).

Regarding “TTTGGATTGATCATGGTCATTTGTACTTTTGTAGTCTTTACGGAGTCACCTAGTGCAG”, the binding signal is 8570 fluorescence intensity (a.u.). Turning to “CCTACACACGTAAACTCTTAACTTTTTTTTTCCAAACTACCGGAGTCACCTAGTGCAG”, the binding signal is 8410 fluorescence intensity (a.u.). Take “GCCCGTCTTATAATAATTTTTTTTATATTTAGTACTTTTACGGAGTCACCTAGTGCAG”: the binding signal was 9530 fluorescence intensity (a.u.).

As to “GTGTGGTCAATTGATCGACTGATCTGTTGCTCCCCGCTTCCGGAGTCACCTAGTGCAG”, the binding signal was 8400 fluorescence intensity (a.u.).

Take “CGCCACCACCAACCGATTCAGGCCGCGCACGCCATTAATGCGGAGTCACCTAGTGCAG”: the binding signal is 9750 fluorescence intensity (a.u.). Take “ACAGTCCCACACCCTCGCCGCACCCGTTTCCGACGGCGATCGGAGTCACCTAGTGCAG”: the binding signal is 10900 fluorescence intensity (a.u.).

Source of the values: paper PMC7819943, “Rice protein-binding microarrays: a tool to detect cis-acting elements near promoter regions in rice”.
